Record: PubChem BioAssay AID1671195 (Yale University, 2021)
The whole screen tested about 22,000 reagents; this is a random part of them. About 1,510 of all reagents (6.9%) were called active. 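Active includes knockdowns raising or lowering LDL uptake; positive z-scores mean more uptake, negative mean less.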 Unmarked entries are inactive.

Purpose: 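Regulators of LDL receptor activity judged by labelled LDL uptake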 (primary screen)
Cells: human Huh7 hepatoma cells
Knock-down reagent: siRNA pool against human genes, 18 nM
Timing: about 2 to 2.5 days of knockdown, then 8 h LDL uptake
Treatment: DiI-labelled LDL at 30 µg/ml for 8 h, in lipoprotein-deficient serum medium
Measurement: 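Per-cell DiI-LDL intensity by automated imaging; well means scaled to the plate median and given as a robust z-score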
Direction: robust z-score: higher = more LDL uptake after knockdown
Active means: 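a gene counts as active if at least two replicate z-scores exceed ±2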

With GABRP (gamma-aminobutyric acid type A receptor subunit pi), what does the deposit list?
robust z-score, replicate 1: -0.0499; robust z-score, replicate 2: -0.47; robust z-score, replicate 3: 0.19

With TRPV5, what was measured?
robust z-score, replicate 1: -0.62; robust z-score, replicate 2: -0.934; robust z-score, replicate 3: -0.737

For SETDB2 (SET domain bifurcated histone lysine methyltransferase 2), what does the deposit list?
robust z-score, replicate 1: -0.116; robust z-score, replicate 2: -0.639; robust z-score, replicate 3: -0.631

Which result is listed for PEG3 (paternally expressed 3)?
robust z-score, replicate 1: 0.0673; robust z-score, replicate 2: -0.945; robust z-score, replicate 3: 0.00601

With KCNK9 (potassium two pore domain channel subfamily K member 9), how do the results read?
robust z-score, replicate 1: -0.496; robust z-score, replicate 2: 0.0997; robust z-score, replicate 3: -0.596

What is on record for UQCC5 (ubiquinol-cytochrome c reductase complex assembly factor 5)?
robust z-score, replicate 1: -0.213; robust z-score, replicate 2: -0.433; robust z-score, replicate 3: -0.579

For DENR (density regulated re-initiation and release factor), how do the results read?
robust z-score, replicate 1: 0.534; robust z-score, replicate 2: -1.02; robust z-score, replicate 3: -0.577

What did the screen give for ABHD10 (abhydrolase domain containing 10, depalmitoylase)?
robust z-score, replicate 1: 1.93; robust z-score, replicate 2: -1.28; robust z-score, replicate 3: 0.606

How did the screen score ALLC (allantoicase)?
robust z-score, replicate 1: 0.286; robust z-score, replicate 2: -0.00144; robust z-score, replicate 3: 0.391

Which result is listed for WDR82 (WD repeat domain 82)?
robust z-score, replicate 1: -1.72; robust z-score, replicate 2: -1.83; robust z-score, replicate 3: -2.13

For STMND1 (stathmin domain containing 1), how do the results read?
robust z-score, replicate 1: -0.496; robust z-score, replicate 2: -0.0116; robust z-score, replicate 3: -0.394

With H2AC12 (H2A clustered histone 12), what was measured?
robust z-score, replicate 1: -0.537; robust z-score, replicate 2: -0.201; robust z-score, replicate 3: 0.12

Which result is listed for ARHGAP9 (Rho GTPase activating protein 9)?
robust z-score, replicate 1: 0.121; robust z-score, replicate 2: 0.53; robust z-score, replicate 3: 0.664

How did the screen score ANK3 (ankyrin 3)?
robust z-score, replicate 1: -0.115; robust z-score, replicate 2: 0.327; robust z-score, replicate 3: 0.908

With GPR39 (G protein-coupled receptor 39), what does the deposit list?
robust z-score, replicate 1: 0.565; robust z-score, replicate 2: -0.0023; robust z-score, replicate 3: 0.179

With LOC402059 (retired record), what was measured?
robust z-score, replicate 1: -0.406; robust z-score, replicate 2: 0.851; robust z-score, replicate 3: 0.769

2 entries from above, reduced to “robust z-score, replicate 3”.
ABHD10 (abhydrolase domain containing 10, depalmitoylase)	0.606
ALLC (allantoicase)	0.391
